Source: patent US20110124560A1 (University of Pennsylvania, published 2011)
These are yes or no findings as the source states them, for the method shown. In cells and extracts the contact can be indirect. Some results given as binding are weak or reduced against the parent protein; the word gives no strength. Values belong to the molecule of their own block, whether it stands above or below them.

Chains of the proteins cited; added tags and fusions are not shown.
UniProt Q9BZS1: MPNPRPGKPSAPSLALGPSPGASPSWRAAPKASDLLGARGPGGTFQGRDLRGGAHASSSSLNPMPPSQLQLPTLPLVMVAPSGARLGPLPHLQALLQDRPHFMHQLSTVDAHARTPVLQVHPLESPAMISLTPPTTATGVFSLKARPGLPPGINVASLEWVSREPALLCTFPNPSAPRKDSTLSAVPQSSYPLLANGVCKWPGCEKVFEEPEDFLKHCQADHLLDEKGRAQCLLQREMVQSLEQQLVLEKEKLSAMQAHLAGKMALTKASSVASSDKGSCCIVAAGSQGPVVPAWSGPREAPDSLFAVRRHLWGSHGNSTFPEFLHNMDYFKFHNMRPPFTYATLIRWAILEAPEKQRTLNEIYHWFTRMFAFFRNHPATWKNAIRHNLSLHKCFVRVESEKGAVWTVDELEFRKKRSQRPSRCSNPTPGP

Tests used:
endogenous FOXP1 (human) [1] = molecular target: T1, endogenous FOXP1 (human) (UniProt Q9H334); experiment: immunoblot of co-immunoprecipitate (FIG. 4D legend)
T1 sequence (looked up): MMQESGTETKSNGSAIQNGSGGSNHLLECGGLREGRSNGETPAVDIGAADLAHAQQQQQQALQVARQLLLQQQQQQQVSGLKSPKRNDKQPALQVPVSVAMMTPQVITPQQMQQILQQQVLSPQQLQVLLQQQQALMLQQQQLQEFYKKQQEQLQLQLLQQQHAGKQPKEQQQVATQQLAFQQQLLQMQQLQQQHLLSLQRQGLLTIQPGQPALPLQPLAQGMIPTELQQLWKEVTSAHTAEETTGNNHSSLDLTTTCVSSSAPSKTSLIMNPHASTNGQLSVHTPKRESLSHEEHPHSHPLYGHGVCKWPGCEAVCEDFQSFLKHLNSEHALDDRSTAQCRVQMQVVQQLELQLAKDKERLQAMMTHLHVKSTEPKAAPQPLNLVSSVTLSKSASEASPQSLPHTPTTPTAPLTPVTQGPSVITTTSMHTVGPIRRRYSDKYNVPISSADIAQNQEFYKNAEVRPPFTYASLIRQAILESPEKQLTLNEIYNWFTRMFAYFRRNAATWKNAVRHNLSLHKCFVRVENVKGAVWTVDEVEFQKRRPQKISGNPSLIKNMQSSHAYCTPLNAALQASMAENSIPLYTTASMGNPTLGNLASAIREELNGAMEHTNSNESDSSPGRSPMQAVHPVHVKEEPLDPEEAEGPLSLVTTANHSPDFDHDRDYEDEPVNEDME

endogenous FOXP1 (human) [2] = molecular target: T1, endogenous FOXP1 (human); experiment: endogenous co-immunoprecipitation with anti-FOXP1 JC12, immunoblot with anti-FOXP3 221D, normal control human T cell line
[3] = molecular target: endogenous wild type FOXP3 (human) (UniProt Q9BZS1); experiment: endogenous co-immunoprecipitation, human CD4+CD25+ T cells
[4] = molecular target: FOXP3 expressed in transfected Jurkat E6.1 T cells (human) (UniProt Q9BZS1); experiment: co-immunoprecipitation, FOXP3 transfected Jurkat E6.1 T cells

binding (endogenous FOXP1 (human) [1]): binds
binding (endogenous FOXP1 (human) [2]): binds
Molecule: endogenous wild type FOXP3 (from UniProt Q9BZS1 1-431)

binding [3]: binds
binding [4]: binds
B1: endogenous FOXP1 (protein, human, UniProt Q9H334 1-677, looked up)
chain: T1 sequence (looked up)
